# Assay results

Source: PubChem BioAssay AID1224904 (Broad Institute, 2016).

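Control-channel Italica luciferase signal in doxycycline-induced 293T-iDUX4 cells, given as percent activity after a 24-hour treatment. The test concentration is not given here. Percent change in the Italica control signal; more negative values mean stronger inhibition, which points to nonspecific, tet-on or cytotoxic effects.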

Values are in %. Common to all entries: measured here: Italica tet-on control reporter. Part of the compounds only, not a random draw; the main read-out is not listed here.

compound: COc1ccc(CN2CC3(CN(C(=O)Cc4ccccc4)C3)c3c([nH]c4cc(OC)ccc34)[C@H]2CO)cc1
activity change (%): -23.39

compound: OC[C@@H]1Nc2ccc(C#Cc3cccnc3)cc2[C@H]2NCC[C@@H]12
activity change (%): -0.1164

compound: COc1ccc(C#Cc2ccc3c(c2)[C@H]2[C@H](CCN2C(=O)c2ccccc2F)[C@H](CO)N3C)cc1
activity change (%): -30.84

compound: COc1ccccc1CNC(=O)C[C@H]1CC[C@H]2[C@@H](COC[C@H](O)CN2Cc2cccc(-c3ccncc3)c2)O1
activity change (%): -30.29

compound: CC(C)CC#Cc1ccc([C@H]2[C@@H](CO)N3C(=O)CN(S(=O)(=O)c4cccc(F)c4)C[C@H]23)cc1
activity change (%): -27.16

compound: CO[C@@H]1CN(C)C(=O)c2ccc(NC(=O)Nc3cccc(Cl)c3)cc2OC[C@H](C)NC[C@@H]1C
activity change (%): -8.458

compound: COc1ccc(-c2ccccc2[C@H]2[C@@H](C#N)N(C(=O)NC3CCCCC3)[C@H]2CO)cc1
activity change (%): -8.124

compound: N#Cc1cccc(-c2ccc([C@@H]3[C@@H](CO)N4CCCCN(C(=O)Nc5cccc(F)c5)C[C@@H]34)cc2)c1
activity change (%): -36.43

compound: O=C(C[C@H]1CC[C@@H]2[C@H](COC[C@H](O)CN2Cc2nccs2)O1)NCc1ccc(Oc2ccccc2)cc1
activity change (%): -12.45

compound: Cc1ccccc1S(=O)(=O)N1CC[C@@H]2[C@@H](CO)N(C)c3ccc(-c4ccc(F)cc4)cc3[C@@H]21
activity change (%): -47.53

compound: COc1ccc2c3c([nH]c2c1)[C@@H](CO)N(C(=O)c1ccccc1)CC31CN(S(=O)(=O)c2cccs2)C1
activity change (%): -26.51

compound: Cc1cccc(S(=O)(=O)N2CCCCN3[C@@H](CO)[C@@H](c4ccc(-c5ccncc5)cc4)[C@@H]3C2)c1
activity change (%): -13.64

compound: O=C(C[C@@H]1CC[C@H]2[C@@H](COC[C@H](O)CN2S(=O)(=O)c2ccc(Cl)cc2)O1)NCc1ccc(Cl)c(Cl)c1
activity change (%): -42.51

compound: COc1ccc2c3c([nH]c2c1)[C@@H](CO)N(C(=O)c1cccc(F)c1)CC31CN(S(=O)(=O)c2cccs2)C1
activity change (%): -37.73

compound: COc1ccc(NC(=O)Nc2ccc3c(c2)[C@@H]2C[C@H](CC(=O)NCc4ccc(-c5ccccc5)cc4)O[C@@H](CO)[C@@H]2O3)cc1
activity change (%): 3.924

compound: COc1ccc(-c2ccc3c(c2)[C@@H]2[C@@H](CCN2Cc2ccccc2F)[C@H](CO)N3)cc1
activity change (%): 3.427

compound: O=C(NC1CCCCC1)N1C[C@@H]2N[C@H](C1)C2c1ccc(-c2cccc(F)c2)cc1 (some centres unmarked)
activity change (%): -7.983

compound: COc1ccc2c3c(n(C)c2c1)[C@H](CO)N(Cc1ccc(Cl)cc1)CC31CCN(CC2CC2)CC1
activity change (%): -47.58

compound: Cc1ccc(-c2ccc([C@H]3[C@H](CO)N4CCCCN(S(=O)(=O)c5ccccc5C)C[C@@H]34)cc2)cc1
activity change (%): 3.655